# From the supplement of paper PMC8728848
# The list shows a part of the results.
# What was measured:
# Test in all cases: glycan array binding signal (z-score within array); higher = stronger binding
# Details in all cases: glycan notation: IUPAC condensed, linker removed
# [1] = target: Neu5Ac(a2-6)Gal(b1-4)GlcNAc(b1-2)Man(a1-3)[GlcNAc(b1-4)][Neu5Ac(a2-6)Gal(b1-4)GlcNAc(b1-2)Man(a1-6)]Man(b1-4)GlcNAc(b1-4)GlcNAc
# Outline: (§1)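 The Consortium for Functional Glycomics database supplied 3228 glycan arrays, of which those lacking an available protein sequence were dropped. The binding signal, a within-array Z-score, was averaged across arrays of the same protein sequence and across linkers. Negative scores can be read as non-binding.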
# [2] = target: Neu5Ac(a2-6)Gal(b1-4)GlcNAc(b1-2)Man(a1-3)[Man(a1-6)]Man(b1-4)GlcNAc(b1-4)GlcNAc
# Outline: as §1
# [3] = target: Neu5Ac(a2-6)Gal(b1-4)GlcNAc(b1-2)Man(a1-3)[Neu5Ac(a2-3)Gal(b1-4)GlcNAc(b1-2)Man(a1-6)]Man(b1-4)GlcNAc(b1-4)GlcNAc
# Outline: as §1
# [4] = target: Neu5Ac(a2-6)Gal(b1-4)GlcNAc(b1-2)Man(a1-3)[Neu5Ac(a2-6)Gal(b1-4)GlcNAc(b1-2)Man(a1-6)]Man(b1-4)GlcNAc(b1-4)GlcNAc
# Outline: as §1
# [5] = target: Neu5Ac(a2-6)Gal(b1-4)GlcNAc(b1-2)Man(a1-3)[Neu5Ac(a2-6)Gal(b1-4)GlcNAc(b1-2)Man(a1-6)]Man(b1-4)GlcNAc(b1-4)[Fuc(a1-6)]GlcNAc
# Outline: as §1
# [6] = target: Neu5Ac(a2-6)Gal(b1-4)GlcNAc(b1-2)Man(a1-6)Man(b1-4)GlcNAc(b1-4)GlcNAc
# Outline: as §1
# [7] = target: Neu5Ac(a2-6)Gal(b1-4)GlcNAc(b1-2)Man(a1-6)[Gal(b1-4)GlcNAc(b1-2)Man(a1-3)]Man(b1-4)GlcNAc(b1-4)GlcNAc
# Outline: as §1
# [8] = target: Neu5Ac(a2-6)Gal(b1-4)GlcNAc(b1-2)Man(a1-6)[GlcNAc(b1-2)Man(a1-3)]Man(b1-4)GlcNAc(b1-4)GlcNAc
# Outline: as §1
# [9] = target: Neu5Ac(a2-6)Gal(b1-4)GlcNAc(b1-2)Man(a1-6)[Man(a1-3)]Man(b1-4)GlcNAc(b1-4)GlcNAc
# Outline: as §1
# [10] = target: Neu5Ac(a2-6)Gal(b1-4)GlcNAc(b1-2)[Neu5Ac(a2-6)Gal(b1-4)GlcNAc(b1-4)]Man(a1-3)[GlcNAc(b1-4)][Neu5Ac(a2-6)Gal(b1-4)GlcNAc(b1-2)[Neu5Ac(a2-6)Gal(b1-4)GlcNAc(b1-6)]Man(a1-6)]Man(b1-4)GlcNAc(b1-4)GlcNAc
# Outline: as §1
# [11] = target: Neu5Ac(a2-6)Gal(b1-4)GlcNAc(b1-2)[Neu5Ac(a2-6)Gal(b1-4)GlcNAc(b1-4)]Man(a1-3)[GlcNAc(b1-4)][Neu5Ac(a2-6)Gal(b1-4)GlcNAc(b1-4)Man(a1-6)]Man(b1-4)GlcNAc(b1-4)GlcNAc
# Outline: as §1
# [12] = target: Neu5Ac(a2-6)Gal(b1-4)GlcNAc(b1-2)[Neu5Ac(a2-6)Gal(b1-4)GlcNAc(b1-6)]Man(a1-6)[Neu5Ac(a2-6)Gal(b1-4)GlcNAc(b1-2)Man(a1-3)][GlcNAc(b1-4)]Man(b1-4)GlcNAc(b1-4)GlcNAc
# Outline: as §1
# [13] = target: Neu5Ac(a2-6)Gal(b1-4)GlcNAc(b1-3)Gal(b1-3)GlcNAc
# Outline: as §1
# [14] = target: Neu5Ac(a2-6)Gal(b1-4)GlcNAc(b1-3)Gal(b1-4)GlcNAc
# Outline: as §1
# [15] = target: Neu5Ac(a2-6)Gal(b1-4)GlcNAc(b1-3)Gal(b1-4)GlcNAc(b1-2)Man(a1-3)[Neu5Ac(a2-6)Gal(b1-4)GlcNAc(b1-3)Gal(b1-4)GlcNAc(b1-2)Man(a1-6)]GalNAc
# Outline: as §1
# [16] = target: Neu5Ac(a2-6)Gal(b1-4)GlcNAc(b1-3)Gal(b1-4)GlcNAc(b1-3)Gal(b1-4)GlcNAc
# Outline: as §1
# [17] = target: Neu5Ac(a2-6)Gal(b1-4)GlcNAc(b1-3)Gal(b1-4)GlcNAc(b1-3)Gal(b1-4)GlcNAc(b1-2)Man(a1-3)[Neu5Ac(a2-6)Gal(b1-4)GlcNAc(b1-3)Gal(b1-4)GlcNAc(b1-3)Gal(b1-4)GlcNAc(b1-2)Man(a1-6)]GalNAc
# Outline: as §1
# [18] = target: Neu5Ac(a2-6)Gal(b1-4)GlcNAc(b1-3)Gal(b1-4)GlcNAc(b1-3)GalNAc
# Outline: as §1
# [19] = target: Neu5Ac(a2-6)Gal(b1-4)GlcNAc(b1-3)Gal(b1-4)GlcNAc(b1-3)[Neu5Ac(a2-6)Gal(b1-4)GlcNAc(b1-3)Gal(b1-4)GlcNAc(b1-6)]GalNAc
# Outline: as §1
# [20] = target: Neu5Ac(a2-6)Gal(b1-4)GlcNAc(b1-3)Gal(b1-4)GlcNAc(b1-6)[Gal(b1-3)]GalNAc
# Outline: as §1
# [21] = target: Neu5Ac(a2-6)Gal(b1-4)GlcNAc(b1-3)Gal(b1-4)[Fuc(a1-3)]GlcNAc(b1-3)Gal(b1-4)[Fuc(a1-3)]GlcNAc
# Outline: as §1
# [22] = target: Neu5Ac(a2-6)Gal(b1-4)GlcNAc(b1-3)GalNAc
# Outline: as §1
# [23] = target: Neu5Ac(a2-6)Gal(b1-4)GlcNAc(b1-3)[Neu5Ac(a2-6)Gal(b1-4)GlcNAc(b1-6)]GalNAc
# Outline: as §1
# [24] = target: Neu5Ac(a2-6)Gal(b1-4)GlcNAc(b1-6)GalNAc
# Outline: as §1
# [25] = target: Neu5Ac(a2-6)Gal(b1-4)GlcNAc(b1-6)[Gal(b1-3)GlcNAc(b1-3)]Gal(b1-4)Glc
# Outline: as §1
# [26] = target: Neu5Ac(a2-6)Gal(b1-4)GlcNAc(b1-6)[Gal(b1-3)]GalNAc
# Outline: as §1
# [27] = target: Neu5Ac(a2-6)Gal(b1-4)GlcNAc6S
# Outline: as §1
# Neu5Ac(a2-6)GalNAc = target: Neu5Ac(a2-6)GalNAc
# Outline: as §1
# [28] = target: Neu5Ac(a2-6)GalNAc(b1-4)GlcNAc
# Outline: as §1
# [29] = target: Neu5Ac(a2-6)GalNAc(b1-4)GlcNAc6S
# Outline: as §1
# [30] = target: Neu5Ac(a2-6)GlcNAc(b1-4)GlcNAc
# Outline: as §1
binder,measurement,setting,value
SP15308C-bot-338-23-338 (Bacteroides ovatus) (protein) DEWTDEQFKQLISFKTQPGGWGVTDVHVRYANSAKYTYNLPVLVSGSTDNTDDRLVSFSLRDDTLDILNFEKFGNRPELYFRELPQKYYSFPKELTIPAGQSHALLPIEFSLDGLDDSQKWALPLKVCEDANGTYAVNPRKYYRTAVLRPILFNEFSGRFSGSSLLGTMAGESDIKFSSTEIKLNVVTDSIVFFYAGQRTEDYEDRINYKVFLQFTGDKVDSKKDLYKMKIWAENEKLKFNSYSTPTYKVSSEMDATKTYLKHTYIVISDIDFDFVDYTSVPNYEIEYNMKGGLSVSRDLDTRKPDEDQGSDSKWW,glycan array binding signal (z-score),[1],0.444
same,glycan array binding signal (z-score),[2],-0.065
same,glycan array binding signal (z-score),[3],-0.387
same,glycan array binding signal (z-score),[4],-0.142
same,glycan array binding signal (z-score),[5],0.771
same,glycan array binding signal (z-score),[6],-0.435
same,glycan array binding signal (z-score),[7],1.16
same,glycan array binding signal (z-score),[8],-0.62
same,glycan array binding signal (z-score),[9],-0.528
same,glycan array binding signal (z-score),[10],-0.902
same,glycan array binding signal (z-score),[11],0.594
same,glycan array binding signal (z-score),[12],-0.283
same,glycan array binding signal (z-score),[13],-0.49
same,glycan array binding signal (z-score),[14],-0.235
same,glycan array binding signal (z-score),[15],0.187
same,glycan array binding signal (z-score),[16],-0.343
same,glycan array binding signal (z-score),[17],2.46
same,glycan array binding signal (z-score),[18],-0.198
same,glycan array binding signal (z-score),[19],-0.165
same,glycan array binding signal (z-score),[20],0.553
same,glycan array binding signal (z-score),[21],-0.639
same,glycan array binding signal (z-score),[22],0.388
same,glycan array binding signal (z-score),[23],-0.102
same,glycan array binding signal (z-score),[24],0.47
same,glycan array binding signal (z-score),[25],-0.068
same,glycan array binding signal (z-score),[26],0.95
same,glycan array binding signal (z-score),[27],0.467
same,glycan array binding signal (z-score),Neu5Ac(a2-6)GalNAc,-0.292
same,glycan array binding signal (z-score),[28],0.259
same,glycan array binding signal (z-score),[29],0.087
same,glycan array binding signal (z-score),[30],0.274

# Some of the entries so far, as tab-separated lines.
binder	measurement	setting	value
SP15308C-bot-338-23-338 (Bacteroides ovatus) (protein) DEWTDEQFKQLISFKTQPGGWGVTDVHVRYANSAKYTYNLPVLVSGSTDNTDDRLVSFSLRDDTLDILNFEKFGNRPELYFRELPQKYYSFPKELTIPAGQSHALLPIEFSLDGLDDSQKWALPLKVCEDANGTYAVNPRKYYRTAVLRPILFNEFSGRFSGSSLLGTMAGESDIKFSSTEIKLNVVTDSIVFFYAGQRTEDYEDRINYKVFLQFTGDKVDSKKDLYKMKIWAENEKLKFNSYSTPTYKVSSEMDATKTYLKHTYIVISDIDFDFVDYTSVPNYEIEYNMKGGLSVSRDLDTRKPDEDQGSDSKWW	glycan array binding signal (z-score)	[7]	1.16
same	glycan array binding signal (z-score)	[19]	-0.165
